Laboratory results reported in PubChem BioAssay AID248 (DTP/NCI, 2004).
The list is a part of this screen's results and no random one: it is rich in T/C values a quarter to a half above the control, in often repeated tests (any T/C) and in doses without a T/C. Further doses and runs are listed elsewhere. T/C is the treated group as % of the vehicle group. Some doses have a count of surviving animals in place of a T/C: the source holds a T/C of zero for them, seemingly a mark for toxic or unscored doses. Some survivor counts are full or nearly so, which does not show that the dose was tolerated: survival well below the control is almost never listed, so the zero probably covers shortened survival too. Counts of survivors are from the toxicity check (mostly the fifth day) where no day follows; animals may have died later. Schedule codes are those of the source, taken here to give the interval after Q, in days (D) or hours (H), and the number of doses after X. Some doses were run more than once; the results are listed from low to high. Some schedules carry Z or #; the key to these is not given. For survival time, this PubChem deposit counts one and a half times the control or more as active, and values a quarter to a half above the control carry no call in these data; other NCI protocols may use other cut-offs. Some T/C values carry the count of animals alive at the toxicity check (mostly the fifth day); where none is given, no animal had died by that day.

Tested on: L1210 leukemia ip in BDF1 mice, survival T/C
Assay: NCI In Vivo Anticancer Drug Screen. Data for tumor model L1210 Leukemia (intraperitoneal) in B6D2F1 (BDF1) mice
Conditions: higher T/C = longer survival
[1] = T/C endpoint: mean survival time, dose: 255.0 mg/kg/injection, schedule: Q04DX002 (ip), vehicle: alkali diluted with saline
[2] = T/C endpoint: mean survival time, dose: 600.0 mg/kg/injection, schedule: Q01DX001 (ip), vehicle: alkali diluted with saline

S=c1nc[nH]c2nc[nH]c12
T/C (T/C endpoint: mean survival time, dose: 160.0 mg/kg/injection, schedule: Q01DX Z (oral), vehicle: other): 145 % of control
T/C (T/C endpoint: mean survival time, dose: 180.0 mg/kg/injection, schedule: Q01DX001 (ip), vehicle: saline): 149 % of control
T/C (T/C endpoint: mean survival time, dose: 180.0 mg/kg/injection, schedule: Q01DX005 (ip), vehicle: alkali diluted with saline): 148 % of control
T/C (T/C endpoint: mean survival time, dose: 180.0 mg/kg/injection, schedule: Q01DX005 (ip), vehicle: saline, evaluated on day 30): 97 and 100 % of control
T/C (T/C endpoint: mean survival time, dose: 180.0 mg/kg/injection, schedule: Q01DX005 (ip), vehicle: saline, evaluated on day 35): 108 % of control
survivor count (T/C endpoint: mean survival time, dose: 180.0 mg/kg/injection, schedule: Q01DX005 (ip), vehicle: saline): 10 of 10
T/C (T/C endpoint: mean survival time, dose: 180.0 mg/kg/injection, schedule: Q04DX003 (ip), vehicle: saline): 146 % of control
T/C (T/C endpoint: mean survival time, dose: 180.0 mg/kg/injection, schedule: Q08DX002 (ip), vehicle: saline): 137 % of control
T/C (T/C endpoint: mean survival time, dose: 200.0 mg/kg/injection, schedule: Q01DX001 (ip), vehicle: steroid suspending solution): 147 % of control
T/C (T/C endpoint: mean survival time, dose: 200.0 mg/kg/injection, schedule: Q02DX008 (ip), vehicle: alkali diluted with saline): 148 % of control
T/C (T/C endpoint: mean survival time, dose: 200.0 mg/kg/injection, schedule: Q## X004 (ip), vehicle: alkali diluted with saline): 146 % of control
T/C (T/C endpoint: mean survival time, dose: 202.0 mg/kg/injection, schedule: Q01DX001 (ip), vehicle: alkali diluted with saline): 142 % of control
T/C (T/C endpoint: mean survival time, dose: 202.0 mg/kg/injection, schedule: Q04DX003 (ip), vehicle: saline with Tween-80): 146 % of control
survivor count (T/C endpoint: mean survival time, dose: 205.0 mg/kg/injection, schedule: Q01DX009 (ip), vehicle: saline with Tween-80): 6 of 6
survivor count (T/C endpoint: mean survival time, dose: 240.0 mg/kg/injection, schedule: Q01DX009 (ip), vehicle: carboxymethylcellulose (CMC)): 10 of 10
survivor count (T/C endpoint: mean survival time, dose: 240.0 mg/kg/injection, schedule: Q01DX009 (ip), vehicle: other): 9 of 10
T/C (T/C endpoint: mean survival time, dose: 240.0 mg/kg/injection, schedule: Q04DX004 (ip), vehicle: alkali diluted with saline): 148 % of control
T/C (T/C endpoint: mean survival time, dose: 250.0 mg/kg/injection, schedule: Q01DX001 (ip), vehicle: Klucel (hydroxypropylcellulose) (HPC)): 126 % of control
T/C (T/C endpoint: mean survival time, dose: 250.0 mg/kg/injection, schedule: Q01DX009 (ip), vehicle: Klucel (hydroxypropylcellulose) (HPC)): 134 % of control
T/C (T/C endpoint: mean survival time, dose: 250.0 mg/kg/injection, schedule: Q04DX003 (ip), vehicle: Klucel (hydroxypropylcellulose) (HPC)): 146 % of control
T/C [1]: 130, 170, 180 % of control
survivor count [1]: 1 of 3
T/C (T/C endpoint: mean survival time, dose: 270.0 mg/kg/injection, schedule: Q04DX003 (ip), vehicle: saline): 145 % of control
T/C (T/C endpoint: mean survival time, dose: 280.0 mg/kg/injection, schedule: Q01DX001 (ip), vehicle: other): 127 % of control
T/C (T/C endpoint: mean survival time, dose: 300.0 mg/kg/injection, schedule: Q01DX001 (ip), vehicle: alkali diluted with saline): 137 and 141 % of control
survivor count (T/C endpoint: mean survival time, dose: 305.0 mg/kg/injection, schedule: Q01DX009 (ip), vehicle: saline with Tween-80): 6 of 6
T/C (T/C endpoint: mean survival time, dose: 320.0 mg/kg/injection, schedule: Q01DX006 (iv), vehicle: other): 130 % of control
survivor count (T/C endpoint: mean survival time, dose: 320.0 mg/kg/injection, schedule: Q01DX009 (ip), vehicle: saline with Tween-80): 5 of 6 and 6 of 6
survivor count (T/C endpoint: mean survival time, dose: 320.0 mg/kg/injection, schedule: Q01DX009 (oral), vehicle: saline with Tween-80): 6 of 6
survivor count (T/C endpoint: mean survival time, dose: 320.0 mg/kg/injection, schedule: Q01DX Z (im), vehicle: other): 6 of 6
survivor count (T/C endpoint: mean survival time, dose: 320.0 mg/kg/injection, schedule: Q01DX Z (ip), vehicle: carboxymethylcellulose (CMC)): 6 of 6
survivor count (T/C endpoint: mean survival time, dose: 320.0 mg/kg/injection, schedule: Q01DX Z (ip), vehicle: other): 6 of 6
T/C (T/C endpoint: mean survival time, dose: 320.0 mg/kg/injection, schedule: Q01DX Z (oral), vehicle: other): 143 % of control
survivor count (T/C endpoint: mean survival time, dose: 320.0 mg/kg/injection, schedule: Q01DX Z (sc), vehicle: other): 6 of 6
T/C (T/C endpoint: mean survival time, dose: 360.0 mg/kg/injection, schedule: Q04DX004 (ip), vehicle: alkali diluted with saline): 126 % of control
T/C (T/C endpoint: mean survival time, dose: 400.0 mg/kg/injection, schedule: Q01DX001 (ip), vehicle: alkali diluted with saline): 147 % of control [8 of 9 alive]
T/C (T/C endpoint: mean survival time, dose: 400.0 mg/kg/injection, schedule: Q01DX001 (ip), vehicle: steroid suspending solution): 137 % of control
survivor count (T/C endpoint: mean survival time, dose: 400.0 mg/kg/injection, schedule: Q01DX009 (ip), vehicle: Klucel (hydroxypropylcellulose) (HPC)): 6 of 6
T/C (T/C endpoint: mean survival time, dose: 405.0 mg/kg/injection, schedule: Q04DX003 (ip), vehicle: saline with Tween-80): 130 % of control [5 of 6 alive]
survivor count (T/C endpoint: mean survival time, dose: 450.0 mg/kg/injection, schedule: Q## X004 (ip), vehicle: alkali diluted with saline): 4 of 10
T/C (T/C endpoint: mean survival time, dose: 500.0 mg/kg/injection, schedule: Q01DX001 (ip), vehicle: Klucel (hydroxypropylcellulose) (HPC)): 128 % of control
survivor count (T/C endpoint: mean survival time, dose: 500.0 mg/kg/injection, schedule: Q01DX001 (ip), vehicle: alkali diluted with saline): 5 of 10
T/C (T/C endpoint: mean survival time, dose: 500.0 mg/kg/injection, schedule: Q04DX003 (ip), vehicle: Klucel (hydroxypropylcellulose) (HPC)): 136 % of control
T/C (T/C endpoint: mean survival time, dose: 512.0 mg/kg/injection, schedule: Q01DX001 (ip), vehicle: carboxymethylcellulose (CMC)): 142 % of control
T/C (T/C endpoint: mean survival time, dose: 560.0 mg/kg/injection, schedule: Q01DX001 (ip), vehicle: other): 138 and 139 % of control
T/C (T/C endpoint: mean survival time, dose: 560.0 mg/kg/injection, schedule: Q07DX Z (ip), vehicle: other): 132 % of control
T/C [2]: 142 % of control
survivor count [2]: 2 of 10
T/C (T/C endpoint: mean survival time, dose: 600.0 mg/kg/injection, schedule: Q## X032 (ip), vehicle: alkali diluted with saline): 129 % of control
survivor count (T/C endpoint: mean survival time, dose: 640.0 mg/kg/injection, schedule: Q01DX009 (ip), vehicle: saline with Tween-80): 4 of 6 and 6 of 6
survivor count (T/C endpoint: mean survival time, dose: 640.0 mg/kg/injection, schedule: Q01DX009 (oral), vehicle: saline with Tween-80): 5 of 6 and 6 of 6
survivor count (T/C endpoint: mean survival time, dose: 800.0 mg/kg/injection, schedule: Q01DX009 (ip), vehicle: Klucel (hydroxypropylcellulose) (HPC)): 6 of 6
T/C (T/C endpoint: mean survival time, dose: 1020.0 mg/kg/injection, schedule: Q01DX001 (ip), vehicle: other): 148 % of control
survivor count (T/C endpoint: mean survival time, dose: 1280.0 mg/kg/injection, schedule: Q01DX Z (oral), vehicle: other): 5 of 6
T/C (T/C endpoint: mean survival time, dose: 5350.0 micrograms/kg/injection, schedule: Q01DX Z (ip), vehicle: carboxymethylcellulose (CMC)): 132 % of control
T/C (T/C endpoint: median survival time, dose: 12.5 mg/kg/injection, schedule: Q01DX009 (ip), vehicle: other): 132 % of control
T/C (T/C endpoint: median survival time, dose: 20.0 mg/kg/injection, schedule: Q01DX009 (ip), vehicle: saline): 110, 112, 118, 130 % of control
T/C (T/C endpoint: median survival time, dose: 25.0 mg/kg/injection, schedule: Q01DX009 (ip), vehicle: other): 132 % of control
T/C (T/C endpoint: median survival time, dose: 25.0 mg/kg/injection, schedule: Q01DX009 (ip), vehicle: water): 127 % of control
T/C (T/C endpoint: median survival time, dose: 36.0 mg/kg/injection, schedule: Q01DX001 (ip), vehicle: alkali diluted with saline): 125 % of control
T/C (T/C endpoint: median survival time, dose: 40.0 mg/kg/injection, schedule: Q01DX009 (ip), vehicle: saline): 110, 112, 135 [5 of 6 alive], 156 % of control
T/C (T/C endpoint: median survival time, dose: 50.0 mg/kg/injection, schedule: Q01DX009 (ip), vehicle: other): 144 % of control
T/C (T/C endpoint: median survival time, dose: 50.0 mg/kg/injection, schedule: Q01DX009 (ip), vehicle: water): 144 % of control
T/C (T/C endpoint: median survival time, dose: 50.0 mg/kg/injection, schedule: Q01DX017 (ip), vehicle: other): 144 % of control
T/C (T/C endpoint: median survival time, dose: 60.0 mg/kg/injection, schedule: Q01DX001 (ip), vehicle: alkali diluted with saline): 128 % of control
T/C (T/C endpoint: median survival time, dose: 80.0 mg/kg/injection, schedule: Q01DX009 (ip), vehicle: saline): 140, 156, 162, 175 % of control
T/C (T/C endpoint: median survival time, dose: 100.0 mg/kg/injection, schedule: Q01DX001 (ip), vehicle: alkali diluted with saline): 125 % of control
survivor count (T/C endpoint: median survival time, dose: 100.0 mg/kg/injection, schedule: Q01DX009 (ip), vehicle: saline): 5 of 6
T/C (T/C endpoint: median survival time, dose: 100.0 mg/kg/injection, schedule: Q01DX009 (ip), vehicle: water): 144 % of control
T/C (T/C endpoint: median survival time, dose: 100.0 mg/kg/injection, schedule: Q01DX017 (ip), vehicle: other): 138 % of control
T/C (T/C endpoint: median survival time, dose: 160.0 mg/kg/injection, schedule: Q01DX009 (ip), vehicle: saline): 130 % of control
T/C (T/C endpoint: median survival time, dose: 167.0 mg/kg/injection, schedule: Q01DX001 (ip), vehicle: alkali diluted with saline): 137 % of control
survivor count (T/C endpoint: median survival time, dose: 200.0 mg/kg/injection, schedule: Q01DX009 (ip), vehicle: other): 7 of 8
T/C (T/C endpoint: median survival time, dose: 200.0 mg/kg/injection, schedule: Q01DX009 (ip), vehicle: water): 144 % of control
